Experimental data taken from patent US20240201191A1, “CITRULLINATED PROTEINS AS BIOMARKERS AND THERAPY TARGETS FOR CANCER” (BOARD OF REGENTS, THE UNIVERSITY OF TEXAS SYSTEM, priority 2022, published 2024).
Some compounds share one range, which may span the group rather than tell each member.

Tested on: MDA-MB-468 (TNBC) cells
Assay: Cell surface HLA-bound peptidyl-citrullinome by mass spectrometry, MDA-MB-468
Format: cell-based, human
Conditions: mild acid elution, LC-MS/MS, FDR=0.01; class by peptide length

| Substance | Cell surface MHC binding citrullinated peptide identified in MDA-MB-468 (TNBC) |
| --- | --- |
| MAR*LTWASHEKMHEGDEGPGHHHKPGLGEGTP (MARLTWASHEKMHEGDEGPGHHHKPGLGEGTP; citrulline at R3; MOD_RES (3)..(3) Citrullinated Arginine) [SEQ ID NO: 115, S100A9 peptide, R3(Cit.)] | MHC-II (from 12 to 34 as MHC-IU binding peptides) |
| MDAPVSGGVGAAR*SGNLTF (MDAPVSGGVGAARSGNLTF; citrulline at R13; MOD_RES (13)..(13) Citrullinated Arginine) [SEQ ID NO: 54, HIBADH peptide, R.13(Cit.)] | MHC-II (from 12 to 34 as MHC-IU binding peptides) |
| MEDLDR*NKDQEVNF (MEDLDRNKDQEVNF; M1 oxidized; citrulline at R6; MOD_RES (1)..(1) Oxidized Methionine; MOD_RES (6)..(6) Citrullinated Arginine) [SEQ ID NO: 113, S100A6 peptide, M1(Oxi.); R6(Cit.)] | MHC-II (from 12 to 34 as MHC-IU binding peptides) |
| MEDLDR*NKDQEVNFQE (MEDLDRNKDQEVNFQE; citrulline at R6; MOD_RES (6)..(6) Citrullinated Arginine) [SEQ ID NO: 112, S100A6 peptide, R6(Cit.)] | MHC-II (from 12 to 34 as MHC-IU binding peptides) |
| MIREADVDQDGR*VNYE (MIREADVDQDGRVNYE; citrulline at R12; MOD_RES (12)..(12) Citrullinated Arginine) [SEQ ID NO: 18, CALML5 peptide, R12(Cit.)] | MHC-II (from 12 to 34 as MHC-IU binding peptides) |
| MIREADVDQDGR*VNYEE (MIREADVDQDGRVNYEE; citrulline at R12; MOD_RES (12)..(12) Citrullinated Arginine) [SEQ ID NO: 16, CALML5 peptide, R12(Cit.)] | MHC-II (from 12 to 34 as MHC-IU binding peptides) |
| MIREADVDQDGR*VNYEEF (MIREADVDQDGRVNYEEF; citrulline at R12; MOD_RES (12)..(12) Citrullinated Arginine) [SEQ ID NO: 17, CALML5 peptide, R.12(Cit.)] | MHC-II (from 12 to 34 as MHC-IU binding peptides) |
| MLVSNR*VSWWGSTLAMLQRLKEQQFVIAGVL (MLVSNRVSWWGSTLAMLQRLKEQQFVIAGVL; oxidized M1; citrulline at R6; MOD_RES (1)..(1) Oxidized Methionine; MOD_RES (6)..(6) Citrullinated Arginine) [SEQ ID NO: 135, ZBED1 peptide, M1(Oxi.); R6(Cit.)] | MHC-II (from 12 to 34 as MHC-IU binding peptides) |
| NNDNLLR*EGAAHAFAQY (NNDNLLREGAAHAFAQY; citrulline at R7; MOD_RES (7)..(7) Citrullinated Arginine) [SEQ ID NO: 21, CAPZA1 peptide, R7(Cit.)] | MHC-II (from 12 to 34 as MHC-IU binding peptides) |
| NVAEVDKVTGR*FNGQFKTY (NVAEVDKVTGRFNGQFKTY; citrulline at R11; MOD_RES (11)..(11) Citrullinated Arginine) [SEQ ID NO: 109, RPS21 peptide, R11(Cit.)] | MHC-II (from 12 to 34 as MHC-IU binding peptides) |
| NVVKTGR*VMLGETNPAD (NVVKTGRVMLGETNPAD; citrulline at R7; MOD_RES (7)..(7) Citrullinated Arginine) [SEQ ID NO: 72, NME2 peptide, R7(Cit.)] | MHC-II (from 12 to 34 as MHC-IU binding peptides) |
| NVVKTGR*VMLGETNPADSKPGTIR*GD (NVVKTGRVMLGETNPADSKPGTIRGD; citrulline at R7 and R24; MOD_RES (7)..(7) Citrullinated Arginine; MOD_RES (24)..(24) Citrullinated Arginine) [SEQ ID NO: 69, NME2 peptide, R7(Cit.); R24(Cit.)] | MHC-II (from 12 to 34 as MHC-IU binding peptides) |
| NVVKTGR*VMLGETNPADSKPGTIRGDF (NVVKTGRVMLGETNPADSKPGTIRGDF; citrulline at R7; MOD_RES (7)..(7) Citrullinated Arginine) [SEQ ID NO: 70, NME2 peptide, R7(Cit.)] | MHC-II (from 12 to 34 as MHC-IU binding peptides) |
| PGHLQEGFGCVVTNR*F (PGHLQEGFGCVVTNRF; citrulline at R15; MOD_RES (15)..(15) Citrullinated Arginine) [SEQ ID NO: 117, SERBP1 peptide, R15(Cit.)] | MHC-II (from 12 to 34 as MHC-IU binding peptides) |
| PGHLQEGFGCVVTNR*FDQL (PGHLQEGFGCVVTNRFDQL; citrulline at R15; MOD_RES (15)..(15) Citrullinated Arginine) [SEQ ID NO: 118, SERBP1 peptide, R15(Cit.)] | MHC-II (from 12 to 34 as MHC-IU binding peptides) |
| PKRKVSSAEGAAKEEPKRR*SARLS (PKRKVSSAEGAAKEEPKRRSARLS; citrulline at R19; MOD_RES (19)..(19) Citrullinated Arginine) [SEQ ID NO: 57, HMGN1 peptide, R19(Cit.)] | MHC-II (from 12 to 34 as MHC-IU binding peptides) |
| QFGEEDADPGAMSR*PFGVAL (QFGEEDADPGAMSRPFGVAL; citrulline at R14; MOD_RES (14)..(14) Citrullinated Arginine) [SEQ ID NO: 106, PSMA5 peptide, R14(Cit.)] | MHC-II (from 12 to 34 as MHC-IU binding peptides) |
| QLQEGKNVIGLQMGTNR*GASQAGMTGYGMPRQIL (QLQEGKNVIGLQMGTNRGASQAGMTGYGMPRQIL; citrulline at R17; MOD_RES (17)..(17) Citrullinated Arginine) [SEQ ID NO: 127, TAGLN2 peptide, R17(Cit.)] | MHC-II (from 12 to 34 as MHC-IU binding peptides) |
| QVVGR*AGTGVDNVDL (QVVGRAGTGVDNVDL; citrulline at R5; MOD_RES (5)..(5) Citrullinated Arginine) [SEQ ID NO: 85, PHGDH peptide, R5(Cit.)] | MHC-II (from 12 to 34 as MHC-IU binding peptides) |
| QWIPPPDKR*RNSELFQ (QWIPPPDKRRNSELFQ; citrulline at R9; MOD_RES (9)..(9) Citrullinated Arginine) [SEQ ID NO: 62, KCTD8 peptide, R9(Cit.)] | MHC-II (from 12 to 34 as MHC-IU binding peptides) |
| R*QTVAVGVIKAVDKKAAGAGKVTKSAQKAQKAK (RQTVAVGVIKAVDKKAAGAGKVTKSAQKAQKAK; citrulline at R1; MOD_RES (1)..(1) Citrullinated Arginine) [SEQ ID NO: 38, EEF1A1 peptide, RI(Cit.)] | MHC-II (from 12 to 34 as MHC-IU binding peptides) |
| R*R*LSEDYGVLKTDEGIAYRG (RRLSEDYGVLKTDEGIAYRG; citrulline at R1 and R2; MOD_RES (1)..(2) Citrullinated Arginine) [SEQ ID NO: 105, PRDX2 peptide, R1(Cit.); R2(Cit.)] | MHC-II (from 12 to 34 as MHC-IU binding peptides) |
| R*TKSTGGAPTENVTVTKTDKTL (RTKSTGGAPTFNVTVTKTDKTL; citrulline at R1; MOD_RES (1)..(1) Citrullinated Arginine) [SEQ ID NO: 80, PFN1 peptide, R1(Cit.)] | MHC-II (from 12 to 34 as MHC-IU binding peptides) |
| R*VDQIIMAKPAGGPKPPSGKKDWDDDQND (RVDQIIMAKPAGGPKPPSGKKDWDDDQND; citrulline at R1; MOD_RES (1)..(1) Citrullinated Arginine) [SEQ ID NO: 24, CCT8 peptide, RI(Cit.)] | MHC-II (from 12 to 34 as MHC-IU binding peptides) |
| R*VFQSLPHENKPLTLSNYQTNKAKHDE (RVFQSLPHENKPLTLSNYQTNKAKHDE; citrulline at R1; MOD_RES (1)..(1) Citrullinated Arginine) [SEQ ID NO: 30, CSTB peptide, RI(Cit.)] | MHC-II (from 12 to 34 as MHC-IU binding peptides) |
| RLVPFDHAESTYGLYR*THL (RLVPFDHAESTYGLYRTHL; citrulline at R16; MOD_RES (16)..(16) Citrullinated Arginine) [SEQ ID NO: 84, PGLS peptide, R16(Cit.)] | MHC-II (from 12 to 34 as MHC-IU binding peptides) |
| SGLKSLQTVSGR*QQL (SGLKSLQTVSGRQQL; citrulline at R12; MOD_RES (12)..(12) Citrullinated Arginine) [SEQ ID NO: 2, API5 peptide, R12(Cit.)] | MHC-II (from 12 to 34 as MHC-IU binding peptides) |
| SIQGQHTISPLDLAKLNQVAR*QQSHF (SIQGQHTISPLDLAKLNQVARQQSHF; citrulline at R21; MOD_RES (21)..(21) Citrullinated Arginine) [SEQ ID NO: 77, PCBP1 peptide, R21(Cit.)] | MHC-II (from 12 to 34 as MHC-IU binding peptides) |
| SR*AQLGGPEAAKSDETAAK (SRAQLGGPEAAKSDETAAK; citrulline at R2; MOD_RES (2)..(2) Citrullinated Arginine) [SEQ ID NO: 59, HSPB1 peptide, R2(Cit.)] | MHC-II (from 12 to 34 as MHC-IU binding peptides) |
| TNRGASQAGMTGYGMPR*QIL (TNRGASQAGMTGYGMPRQIL; citrulline at R17; MOD_RES (17)..(17) Citrullinated Arginine) [SEQ ID NO: 126, TAGLN2 peptide, R17(Cit.)] | MHC-II (from 12 to 34 as MHC-IU binding peptides) |
